In PMC3115989:
Results are given in words; binding and its absence hold for the method and conditions named. In cells and extracts the contact can be indirect. Some results given as binding are weak or reduced against the parent protein; the word gives no strength.

Chains of the proteins cited; added tags and fusions are not shown.
UniProt P37198: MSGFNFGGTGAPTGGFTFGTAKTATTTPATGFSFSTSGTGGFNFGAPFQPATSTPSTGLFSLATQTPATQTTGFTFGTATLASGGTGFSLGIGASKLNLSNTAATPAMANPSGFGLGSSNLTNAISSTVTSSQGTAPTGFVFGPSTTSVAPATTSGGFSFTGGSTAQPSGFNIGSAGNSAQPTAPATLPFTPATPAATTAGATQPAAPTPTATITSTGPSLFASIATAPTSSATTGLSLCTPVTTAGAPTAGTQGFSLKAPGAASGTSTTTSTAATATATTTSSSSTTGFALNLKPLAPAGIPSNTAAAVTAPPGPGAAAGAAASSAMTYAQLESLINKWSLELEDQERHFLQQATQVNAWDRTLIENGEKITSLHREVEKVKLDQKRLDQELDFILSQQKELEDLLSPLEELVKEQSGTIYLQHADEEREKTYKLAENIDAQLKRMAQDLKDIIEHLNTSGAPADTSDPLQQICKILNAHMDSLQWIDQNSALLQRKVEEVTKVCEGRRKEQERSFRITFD

Target: T1, ORP8 (endogenous, HuH7 cells) (human (endogenous in HuH7)) (UniProt Q9BZF1)
T1 sequence: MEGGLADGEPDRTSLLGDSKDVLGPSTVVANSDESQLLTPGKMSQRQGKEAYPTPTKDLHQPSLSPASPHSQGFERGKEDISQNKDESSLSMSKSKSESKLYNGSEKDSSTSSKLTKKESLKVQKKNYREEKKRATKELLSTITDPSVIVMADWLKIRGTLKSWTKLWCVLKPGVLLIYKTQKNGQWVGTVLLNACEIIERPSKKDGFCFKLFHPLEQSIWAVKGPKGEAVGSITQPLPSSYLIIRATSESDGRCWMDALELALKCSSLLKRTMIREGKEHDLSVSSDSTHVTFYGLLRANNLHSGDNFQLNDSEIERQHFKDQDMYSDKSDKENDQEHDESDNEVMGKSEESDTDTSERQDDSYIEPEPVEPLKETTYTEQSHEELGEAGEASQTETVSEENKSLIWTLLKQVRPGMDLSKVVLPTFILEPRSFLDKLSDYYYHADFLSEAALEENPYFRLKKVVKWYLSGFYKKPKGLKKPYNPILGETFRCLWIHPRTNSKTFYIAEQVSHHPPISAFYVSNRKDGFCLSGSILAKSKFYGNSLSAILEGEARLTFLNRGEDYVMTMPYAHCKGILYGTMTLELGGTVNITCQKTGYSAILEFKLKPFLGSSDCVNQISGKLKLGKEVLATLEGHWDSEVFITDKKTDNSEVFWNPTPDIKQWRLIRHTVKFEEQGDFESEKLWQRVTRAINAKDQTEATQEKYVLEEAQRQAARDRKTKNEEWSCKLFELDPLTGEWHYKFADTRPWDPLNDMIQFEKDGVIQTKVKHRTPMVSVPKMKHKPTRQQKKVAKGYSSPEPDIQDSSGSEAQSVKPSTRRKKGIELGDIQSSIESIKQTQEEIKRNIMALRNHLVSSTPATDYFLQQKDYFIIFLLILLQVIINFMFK
Experiment: co-IP; lysate of untransfected HuH7 cells (50 mM Tris-Cl, 150 mM NaCl, 0.5 mM MgCl2, 10% glycerol, 0.5% Triton X-100, pH 8.0); immunoprecipitated with anti-ORP8 or control IgG at 4°C, rProtein G agarose; Western blot with anti-Nup62

- binding: binds
Substance: Nup62 (endogenous, HuH7 cells) (from UniProt P37198 1-522)
